Several values for one entry are separate records, joined by “and”; a condition that tells them apart may be missing. Equal values may be shown once. Where a name gives a salt, the structure may show the parent alone. This is one part of the list. Repeats in this data set agree poorly, so a single value says little.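 The human kidney-derived cells carry a stably integrated construct of eight TEAD-binding elements driving luciferase, read by luminescence in a drug-repurposing library screen. A compound counts as a hit when its signal is more than five robust Z scores above the plate mean.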
Tested on: HEK293A TEAD-LUC reporter
Experiment: TEAD-luciferase reporter activity (YAP activation), robust Z score vs plate; higher = stronger YAP/TEAD activation
Settings: 24 h

| SMILES | TEAD-luciferase reporter activity (compound concentration: 200 nM) | TEAD-luciferase reporter activity (compound concentration: 2 uM) | TEAD-luciferase reporter activity (compound concentration: 10 uM) |
| --- | --- | --- | --- |
| CCOC(=O)c1c(CSc2ccccc2)n(C)c2cc(Br)c(O)c(CN(C)C)c12 [Arbidol] | inactive: 0.421 | inactive: 2.6 | inactive: 2.34 |
| Cc1cccc(C)c1NNC(=N)N(C)C | inactive: 0.266 | inactive: -2.33 | inactive: -0.0378 |
| FC(F)(F)c1ccc(CNc2ccc(Cc3c[nH]c4ncccc34)cn2)cc1 | inactive: -0.506 | inactive: 0.184 | inactive: 0.457 |
| COc1cccc([C@H]2O[C@H](CC(=O)N3CCC(CC(=O)O)CC3)C(=O)N(CC(C)(C)COC(C)=O)c3ccc(Cl)cc32)c1OC [Lapaquistat acetate] | inactive: 1.73 | inactive: -1.79 | inactive: 3 |
| CC(C)Cc1ccc(C(C)C(=O)NO)cc1 (stereo not drawn) [Ibuproxam] | inactive: -0.528 | inactive: 0.929 | active: 5.22 |
| CCN(CC)CCOc1cccc(CNc2ncc3cc(-c4ccccc4)c(=O)n(C)c3n2)c1 | inactive: -0.695 | inactive: 0.267 | inactive: 0.97 |
| N[C@@H]1c2cccnc2[C@H](OC(=O)N2CCC(n3c(=O)[nH]c4ncccc43)CC2)CC[C@H]1c1cccc(F)c1F [Rimegepant] | inactive: 2.26 | inactive: 0.198 | inactive: -0.147 |
| Cc1cccc(Cl)c1NC(=O)CCN1CCCC2CCCC21 (stereo not drawn) | inactive: -0.899 | inactive: 0.57 | inactive: 0.000409 |
| O=C1CN2Cc3c(ccc(Cl)c3Cl)N=C2N1 [anagrelide CR] |  | inactive: -2.19 |  |
| O=C1CN2Cc3c(ccc(Cl)c3Cl)N=C2N1 [anagrelide hydrochloride] | inactive: -0.653 |  | inactive: 0.962 |
| CSCCNc1nc(SCCC(F)(F)F)nc2c1ncn2[C@@H]1O[C@H](COP(=O)(O)OP(=O)(O)C(Cl)(Cl)P(=O)(O)O)[C@@H](O)[C@H]1O [Cangrelor] | inactive: -0.431 | inactive: -0.925 | inactive: 2.47 |
| O=C(c1cc[n+]([O-])cc1)N1CCC(=C2c3ccc(Cl)cc3CCc3cccnc32)CC1 | inactive: 0.395 | inactive: 0.7 | inactive: -0.805 |
| CCCCCCCCCCCCN [dodecylamine] |  | inactive: -1.87 |  |
| CCCCCCCCCCCCN [dodecylamine, Cellegy] | inactive: -1.45 |  | inactive: 3.16 |
| COc1ccc(S(N)(=O)=O)cc1C(=O)NC[C@H]1CCCN1CC1CC1 | inactive: -0.605 | inactive: -1.24 | inactive: -0.114 |
| O=C(O)Cc1nn(Cc2ccc(Br)cc2F)c(=O)c2ccccc12 [Ponalrestat] | inactive: -1.41 | inactive: -0.371 | active: 7.92 |
| COc1cc(C(C)C)c2c(c1)S(=O)(=O)N(COc1cc(=O)n3cccc(OCCN4CCCCC4)c3n1)C2=O | inactive: 0.979 | inactive: -1.15 | inactive: 3.78 |
| CO/N=C(\C(=O)N[C@@H]1C(=O)N2C(C(=O)O)=C(/C=C\c3scnc3C)CS[C@H]12)c1csc(N)n1 | inactive: -0.448 | inactive: -1.66 | inactive: -0.439 |
| CC(=O)N1Cc2ccccc2CC2(CCCN2CCc2ccccc2)C1 (stereo not drawn) | inactive: 0.756 |  | inactive: 3.36 |

| SMILES | TEAD-luciferase reporter activity (compound concentration: 200 nM) | TEAD-luciferase reporter activity (compound concentration: 2 uM) | TEAD-luciferase reporter activity (compound concentration: 10 uM) |
| --- | --- | --- | --- |
| Cc1cc2c(N)c3c(nc2cc1F)CCCC3 | inactive: -2.06 | inactive: 2.6 | inactive: -1.27 |
| COc1ccc(C(=O)c2sc(Nc3ccccc3)nc2N)cc1OC | inactive: -0.468 | inactive: -1.71 | inactive: -1.33 |
| O=S(=O)([O-])c1cc(O)c(S(=O)(=O)[O-])cc1O [diethylamine persilate] | inactive: -0.266 | inactive: 0.512 | inactive: -1.06 |
| CCC(=O)NC[C@@H]1C[C@H]1c1cccc2c1CCO2 [Tasimelteon] | inactive: 2.9 | inactive: 1.77 | inactive: -0.915 |
| C=C1C[C@H]2C=Nc3cc(OCCCOc4cc5c(cc4OC)C(=O)N4CC(=C)C[C@H]4C=N5)c(OC)cc3C(=O)N2C1 | inactive: -0.771 | inactive: -1.29 and inactive: -1.47 | inactive: -1.1 |
| CCOC(=O)NNc1ccc(N(CC)CC(C)O)nn1 (stereo not drawn) [cadralazine] | inactive: 3 | inactive: -0.998 | inactive: -0.336 |
| COc1cc2c(c(OC)c1OC)-c1c(cc3c(c1OC)OCO3)C[C@H](C)[C@@](C)(O)C2 [Gomisin A] | inactive: 2.08 | inactive: -0.334 | inactive: -2.13 |
| COc1cccc2c1nc(C(F)F)n2-c1nc(-c2ccc(NS(=O)(=O)CCN(C)C)cc2)nc(N2CCOCC2)n1 | inactive: 0.645 | inactive: -1.64 | inactive: 1 |
| CC(=O)Oc1c(C)c(C)c2c(c1C)CC(CC(=O)O)O2 (stereo not drawn) [raxofelast] | inactive: -0.373 | inactive: 0.939 | inactive: -0.788 |
| CCCCOc1nc(N)c2c(n1)N(Cc1cccc(CN3CCCC3)c1)CC(=O)N2 [Vesatolimod] | inactive: -0.139 | inactive: 0.074 | inactive: 0.171 |
| O=C(OCc1ccccc1)c1cccnc1 | inactive: -0.00818 | inactive: -0.169 | inactive: 0.341 |
| CCCCCCCN(Cc1ccc(CCC(C)C)cc1)C(=O)Nc1c(C)cc(Cl)cc1C | inactive: -0.765 | inactive: -0.344 | inactive: 0.503 |
| C=CCc1c(OC(=O)N2CCC(N3CCCCC3)CC2)ccc2nc3c(cc12)Cn1c-3cc2c(c1=O)COC(=O)[C@]2(O)CC [Simmitecan hydrochloride] | inactive: 0.594 | inactive: 1.27 | inactive: 0.881 |
| NC(=O)NO | inactive: -0.367 |  | inactive: -0.232 |
| NC(=O)NO [Hydroxyurea] |  | inactive: 0.363 |  |
| Nc1nc(O)c(Br)c(-c2ccccc2)n1 [bropirimine] | inactive: -1.47 | inactive: 0.321 | inactive: -0.389 |
| C=CC(=O)N1CCC[C@H](n2c(=O)n(-c3ccc(Oc4ccccc4)cc3)c3c(N)ncnc32)C1 | inactive: -0.0963 |  | inactive: 0.862 |
| C=CC(=O)N1CCC[C@H](n2c(=O)n(-c3ccc(Oc4ccccc4)cc3)c3c(N)ncnc32)C1 [analog of ONO-4059] |  | inactive: -1.34 |  |

Part of the list above, as tab-separated lines:
SMILES	TEAD-luciferase reporter activity (compound concentration: 200 nM)	TEAD-luciferase reporter activity (compound concentration: 2 uM)	TEAD-luciferase reporter activity (compound concentration: 10 uM)
COc1cccc2c1nc(C(F)F)n2-c1nc(-c2ccc(NS(=O)(=O)CCN(C)C)cc2)nc(N2CCOCC2)n1	inactive: 0.645	inactive: -1.64	inactive: 1
CC(=O)Oc1c(C)c(C)c2c(c1C)CC(CC(=O)O)O2 (stereo not drawn) [raxofelast]	inactive: -0.373	inactive: 0.939	inactive: -0.788
CCCCOc1nc(N)c2c(n1)N(Cc1cccc(CN3CCCC3)c1)CC(=O)N2 [Vesatolimod]	inactive: -0.139	inactive: 0.074	inactive: 0.171
O=C(OCc1ccccc1)c1cccnc1	inactive: -0.00818	inactive: -0.169	inactive: 0.341
CCCCCCCN(Cc1ccc(CCC(C)C)cc1)C(=O)Nc1c(C)cc(Cl)cc1C	inactive: -0.765	inactive: -0.344	inactive: 0.503
C=CCc1c(OC(=O)N2CCC(N3CCCCC3)CC2)ccc2nc3c(cc12)Cn1c-3cc2c(c1=O)COC(=O)[C@]2(O)CC [Simmitecan hydrochloride]	inactive: 0.594	inactive: 1.27	inactive: 0.881
NC(=O)NO	inactive: -0.367		inactive: -0.232
